The target of assay [1] is T1, Trak1 (mouse (endogenous in adult mouse brain)) (UniProt Q6PD31).
T1 sequence: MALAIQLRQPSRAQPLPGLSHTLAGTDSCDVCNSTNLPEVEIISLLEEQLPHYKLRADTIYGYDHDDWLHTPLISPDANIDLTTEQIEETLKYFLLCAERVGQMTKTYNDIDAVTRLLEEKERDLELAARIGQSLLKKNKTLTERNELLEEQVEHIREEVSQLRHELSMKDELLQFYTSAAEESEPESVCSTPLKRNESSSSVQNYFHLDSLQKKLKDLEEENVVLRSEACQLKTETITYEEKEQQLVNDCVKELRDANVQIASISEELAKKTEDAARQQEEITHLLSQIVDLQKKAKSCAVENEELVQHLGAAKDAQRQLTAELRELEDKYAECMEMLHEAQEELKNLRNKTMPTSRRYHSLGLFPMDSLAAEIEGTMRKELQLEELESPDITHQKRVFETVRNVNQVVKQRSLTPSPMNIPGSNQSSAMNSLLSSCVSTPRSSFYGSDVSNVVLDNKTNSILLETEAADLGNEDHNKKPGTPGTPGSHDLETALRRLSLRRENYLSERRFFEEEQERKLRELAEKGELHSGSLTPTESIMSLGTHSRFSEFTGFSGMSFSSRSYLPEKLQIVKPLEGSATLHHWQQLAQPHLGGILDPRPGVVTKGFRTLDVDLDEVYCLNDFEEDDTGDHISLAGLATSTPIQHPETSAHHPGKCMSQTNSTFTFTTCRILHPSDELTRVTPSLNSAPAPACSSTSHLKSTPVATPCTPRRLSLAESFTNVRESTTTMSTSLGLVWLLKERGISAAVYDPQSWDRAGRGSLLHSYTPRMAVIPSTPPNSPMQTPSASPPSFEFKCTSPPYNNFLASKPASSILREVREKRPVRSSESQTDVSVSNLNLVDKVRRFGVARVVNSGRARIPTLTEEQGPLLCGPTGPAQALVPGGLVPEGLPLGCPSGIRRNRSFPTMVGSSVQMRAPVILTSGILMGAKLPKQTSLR
Kind of assay: co-IP; Trak1 immunoprecipitated from adult mouse brain synaptosome and light membrane fractions; endogenous proteins.

Protein sequences, listed by entry. Tags and fused reporters are not part of them. Residues count along the entry.
UniProt Q01097, residues 27-1482: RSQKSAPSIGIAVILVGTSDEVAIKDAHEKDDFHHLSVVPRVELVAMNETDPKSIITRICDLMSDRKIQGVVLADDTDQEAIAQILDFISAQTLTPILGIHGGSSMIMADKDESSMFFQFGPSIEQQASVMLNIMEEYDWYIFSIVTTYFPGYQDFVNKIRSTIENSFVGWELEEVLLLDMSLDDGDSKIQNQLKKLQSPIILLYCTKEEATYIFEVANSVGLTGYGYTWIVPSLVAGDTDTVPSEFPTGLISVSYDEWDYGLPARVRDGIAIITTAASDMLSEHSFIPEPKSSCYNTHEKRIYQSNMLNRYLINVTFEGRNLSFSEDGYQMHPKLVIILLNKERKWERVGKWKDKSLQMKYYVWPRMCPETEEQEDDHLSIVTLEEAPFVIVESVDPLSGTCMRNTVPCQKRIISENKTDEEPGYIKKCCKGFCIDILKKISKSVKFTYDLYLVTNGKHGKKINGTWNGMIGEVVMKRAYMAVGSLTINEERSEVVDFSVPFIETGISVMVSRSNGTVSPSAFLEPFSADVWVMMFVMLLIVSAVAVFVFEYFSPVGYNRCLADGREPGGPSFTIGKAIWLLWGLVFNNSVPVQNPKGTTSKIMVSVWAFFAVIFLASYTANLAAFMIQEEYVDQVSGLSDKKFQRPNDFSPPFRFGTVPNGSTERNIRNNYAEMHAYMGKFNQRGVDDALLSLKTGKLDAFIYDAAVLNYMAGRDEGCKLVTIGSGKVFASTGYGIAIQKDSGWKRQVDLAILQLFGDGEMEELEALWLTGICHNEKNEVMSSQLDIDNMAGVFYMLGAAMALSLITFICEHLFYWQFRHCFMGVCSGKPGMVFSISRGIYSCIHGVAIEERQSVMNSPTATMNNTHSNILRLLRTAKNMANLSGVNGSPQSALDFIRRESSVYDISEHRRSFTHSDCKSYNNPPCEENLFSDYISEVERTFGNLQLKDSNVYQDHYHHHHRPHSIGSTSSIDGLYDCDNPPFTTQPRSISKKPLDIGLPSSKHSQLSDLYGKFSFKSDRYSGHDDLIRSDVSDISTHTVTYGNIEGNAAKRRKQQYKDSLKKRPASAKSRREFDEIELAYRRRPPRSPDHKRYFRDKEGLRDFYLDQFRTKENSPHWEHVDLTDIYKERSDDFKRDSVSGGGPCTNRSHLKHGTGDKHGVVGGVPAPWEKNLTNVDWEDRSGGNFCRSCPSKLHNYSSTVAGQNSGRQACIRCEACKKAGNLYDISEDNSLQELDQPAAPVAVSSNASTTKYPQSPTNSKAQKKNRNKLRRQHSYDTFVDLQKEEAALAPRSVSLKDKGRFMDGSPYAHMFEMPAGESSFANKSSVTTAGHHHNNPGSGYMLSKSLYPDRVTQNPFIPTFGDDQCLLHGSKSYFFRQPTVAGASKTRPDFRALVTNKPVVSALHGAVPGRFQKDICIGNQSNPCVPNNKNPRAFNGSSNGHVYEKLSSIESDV

Assay [2] addresses GluN1 cytoplasmic tail (C0-C1-C2) peptide array, peptide spots 1–16 (amino acids 831–930) (UniProt Q05586). Description: peptide or protein array; peptide array of the GluN1 cytoplasmic tail (C0-C1-C2), each spot a single peptide, probed with FLAG-DISC1.
A further assay deals with HA-tagged GluN1 (UniProt Q05586). Description: co-IP; tagged proteins co-expressed in transfected COS7 cells, immunoprecipitated from cell lysates.

No constants are given. Whether binding was seen depends on the method and setting. For some of these results: Binding seen in cells or lysates may run through a third protein. Some entries that bind do so weakly or less than the wild type. For some of these results: Sequences can lack the tags named with a protein.

For the molecule “GluN2B (from UniProt Q01097 27-1482) (receptor)”, the binding result in assay [1] is listed as “binds”.

B1: FLAG-DISC1 (protein, UniProt Q9NRI5 1-854)
chain: MPGGGPQGAPAAAGGGGVSHRAGSRDCLPPAACFRRRRLARRPGYMRSSTGPGIGFLSPAVGTLFRFPGGVSGEESHHSESRARQCGLDSRGLLVRSPVSKSAAAPTVTSVRGTSAHFGIQLRGGTRLPDRLSWPCGPGSAGWQQEFAAMDSSETLDASWEAACSDGARRVRAAGSLPSAELSSNSCSPGCGPEVPPTPPGSHSAFTSSFSFIRLSLGSAGERGEAEGCPPSREAESHCQSPQEMGAKAASLDGPHEDPRCLSRPFSLLATRVSADLAQAARNSSRPERDMHSLPDMDPGSSSSLDPSLAGCGGDGSSGSGDAHSWDTLLRKWEPVLRDCLLRNRRQMEVISLRLKLQKLQEDAVENDDYDKAETLQQRLEDLEQEKISLHFQLPSRQPALSSFLGHLAAQVQAALRRGATQQASGDDTHTPLRMEPRLLEPTAQDSLHVSITRRDWLLQEKQQLQKEIEALQARMFVLEAKDQQLRREIEEQEQQLQWQGCDLTPLVGQLSLGQLQEVSKALQDTLASAGQIPFHAEPPETIRSLQERIKSLNLSLKEITTKVCMSEKFCSTLRKKVNDIETQLPALLEAKMHAISGNHFWTAKDLTEEIRSLTSEREGLEGLLSKLLVLSSRNVKKLGSVKEDYNRLRREVEHQETAYETSVKENTMKYMETLKNKLCSCKCPLLGKVWEADLEACRLLIQSLQLQEARGSLSVEDERQMDDLEGAAPPIPPRLHSEDKRKTPLKVLEEWKTHLIPSLHCAGGEQKEESYILSAELGEKCEDIGKKLLYLEDQLHTAIHSHDEDLIQSLRRELQMVKETLQAMILQLQPAKEAGEREAAASCMTAGVHEAQA
In the case of B1, the binding entry (in assay [2]; in the assay with HA-tagged GluN1) was “binds” in each case.

B2: GST-DISC1 amino acids 358–499 (domain or fragment, UniProt Q9NRI5 358-499)
chain: QKLQEDAVENDDYDKAETLQQRLEDLEQEKISLHFQLPSRQPALSSFLGHLAAQVQAALRRGATQQASGDDTHTPLRMEPRLLEPTAQDSLHVSITRRDWLLQEKQQLQKEIEALQARMFVLEAKDQQLRREIEEQEQQLQW
For the molecule B2, the binding result in the assay with HA-tagged GluN1 is reported as “binds”.

The values are drawn from publication PMC6127284.
